The values below come from publication PMC5552852, “Structural basis for Ccd1 auto-inhibition in the Wnt pathway through homomerization of the DIX domain” (Scientific Reports, 2017).

The target in assay [1] is Axin DIX domain (UniProt O70239). The assay can be described thus: dynamic light scattering; Zetasizer Nano, 293 K, DIX domains at 100 uM, alone or mixed at a 1:1 molar ratio; both purified.
Assay [2] addresses Dvl1 DIX domain (UniProt P51141). Described as above.
The target of assay [3] is T1, MBP-fused zCcd1 DIX (zebrafish, UniProt Q804T6 356-438).
T1 construct: DIX domain of zebrafish Ccd1, cDNA Gene ID 360137; The uncleaved precursor of m2; also called MBP-fused zCcd1 DIX domain; source: E. coli (plasmid pOPINM), purified (amylose resin)
T1 sequence (looked up): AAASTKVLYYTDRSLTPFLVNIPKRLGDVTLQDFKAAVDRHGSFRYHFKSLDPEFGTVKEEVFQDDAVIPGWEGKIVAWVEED
The assay can be described thus: pull-down; MBP-fused mCcd1, zCcd1 or Dvl1 DIX (0.8 mM) held on amylose resin, Axin DIX or Dvl1 DIX free; pull-down buffer, 277 K (Figures 5f, 5g); both purified.

These are yes or no findings as the source states them, for the method shown. Some binding calls cover weakened binding; strength is not graded here. For part of these data: Tags and fused reporters may be left off the sequences shown.

B1: Axin DIX domain (domain or fragment, UniProt O70239 745-827, looked up)
chain: CDSIVVAYYFCGEPIPYRTLVRGRAVTLGQFKELLTKKGSYRYYFKKVSDEFDCGVVFEEVREDEAILPVFEEKIIGKVEKVD
notes: DIX domain of Axin; source: E. coli, expressed as a fusion construct with GST or MBP, purified
Turning to B1, the binding result in assay [1] is reported as “binds”.

B2: Dvl1 DIX domain (domain or fragment, UniProt P51141 1-85)
chain: MAETKIIYHMDEEETPYLVKLPVAPERVTLADFKNVLSNRPVHAYKFFFKSMDQDFGVVKEEIFDDNAKLPCFNGRVVSWLVLAE
On to B2, for which the binding entry in assay [2] and in assay [3] was “binds” throughout.
